{"sequences": {"note": "Chains of the proteins cited; added tags and fusions are not shown.", "UniProt P26361": "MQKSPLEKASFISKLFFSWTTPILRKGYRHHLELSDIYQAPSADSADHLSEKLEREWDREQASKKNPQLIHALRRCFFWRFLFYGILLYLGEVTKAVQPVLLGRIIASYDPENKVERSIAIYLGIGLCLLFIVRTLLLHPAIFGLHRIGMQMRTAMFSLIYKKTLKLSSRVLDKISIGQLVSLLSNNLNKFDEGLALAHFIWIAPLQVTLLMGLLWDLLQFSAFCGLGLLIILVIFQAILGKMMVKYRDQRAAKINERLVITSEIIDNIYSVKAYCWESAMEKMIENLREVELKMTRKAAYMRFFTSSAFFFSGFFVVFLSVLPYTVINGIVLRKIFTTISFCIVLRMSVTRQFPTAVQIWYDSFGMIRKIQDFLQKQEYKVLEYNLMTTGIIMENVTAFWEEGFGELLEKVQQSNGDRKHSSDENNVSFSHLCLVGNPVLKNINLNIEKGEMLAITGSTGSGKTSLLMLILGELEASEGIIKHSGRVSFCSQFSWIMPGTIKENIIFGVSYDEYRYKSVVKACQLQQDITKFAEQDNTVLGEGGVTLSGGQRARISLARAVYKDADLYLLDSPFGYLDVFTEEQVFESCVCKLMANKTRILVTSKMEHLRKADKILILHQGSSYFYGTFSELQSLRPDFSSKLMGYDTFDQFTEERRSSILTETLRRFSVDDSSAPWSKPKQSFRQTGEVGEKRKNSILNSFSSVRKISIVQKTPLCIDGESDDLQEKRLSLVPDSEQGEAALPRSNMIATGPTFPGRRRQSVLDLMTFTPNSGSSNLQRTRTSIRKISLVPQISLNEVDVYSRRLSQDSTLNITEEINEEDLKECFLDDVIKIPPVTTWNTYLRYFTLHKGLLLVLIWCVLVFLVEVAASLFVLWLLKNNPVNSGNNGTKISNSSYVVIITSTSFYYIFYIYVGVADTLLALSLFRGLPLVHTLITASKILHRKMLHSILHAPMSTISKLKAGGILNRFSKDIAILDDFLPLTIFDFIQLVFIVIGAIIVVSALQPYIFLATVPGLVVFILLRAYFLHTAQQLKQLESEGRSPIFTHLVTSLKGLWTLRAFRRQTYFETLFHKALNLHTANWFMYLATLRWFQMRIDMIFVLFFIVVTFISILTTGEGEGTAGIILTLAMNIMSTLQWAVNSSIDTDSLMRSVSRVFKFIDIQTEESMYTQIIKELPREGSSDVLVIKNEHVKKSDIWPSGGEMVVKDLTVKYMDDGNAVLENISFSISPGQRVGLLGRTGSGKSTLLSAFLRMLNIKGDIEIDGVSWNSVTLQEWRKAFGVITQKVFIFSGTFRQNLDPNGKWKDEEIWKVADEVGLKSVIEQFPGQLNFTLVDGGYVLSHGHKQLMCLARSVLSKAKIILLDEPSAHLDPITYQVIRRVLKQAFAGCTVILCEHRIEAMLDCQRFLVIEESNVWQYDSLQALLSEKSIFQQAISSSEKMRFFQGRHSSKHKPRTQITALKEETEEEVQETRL"}, "source": "paper PMC7993706", "key": {"[1]": {"target": "T1, Dvl2 (mouse (endogenous in kidney tissue)) (UniProt Q60838)", "T1 sequence": "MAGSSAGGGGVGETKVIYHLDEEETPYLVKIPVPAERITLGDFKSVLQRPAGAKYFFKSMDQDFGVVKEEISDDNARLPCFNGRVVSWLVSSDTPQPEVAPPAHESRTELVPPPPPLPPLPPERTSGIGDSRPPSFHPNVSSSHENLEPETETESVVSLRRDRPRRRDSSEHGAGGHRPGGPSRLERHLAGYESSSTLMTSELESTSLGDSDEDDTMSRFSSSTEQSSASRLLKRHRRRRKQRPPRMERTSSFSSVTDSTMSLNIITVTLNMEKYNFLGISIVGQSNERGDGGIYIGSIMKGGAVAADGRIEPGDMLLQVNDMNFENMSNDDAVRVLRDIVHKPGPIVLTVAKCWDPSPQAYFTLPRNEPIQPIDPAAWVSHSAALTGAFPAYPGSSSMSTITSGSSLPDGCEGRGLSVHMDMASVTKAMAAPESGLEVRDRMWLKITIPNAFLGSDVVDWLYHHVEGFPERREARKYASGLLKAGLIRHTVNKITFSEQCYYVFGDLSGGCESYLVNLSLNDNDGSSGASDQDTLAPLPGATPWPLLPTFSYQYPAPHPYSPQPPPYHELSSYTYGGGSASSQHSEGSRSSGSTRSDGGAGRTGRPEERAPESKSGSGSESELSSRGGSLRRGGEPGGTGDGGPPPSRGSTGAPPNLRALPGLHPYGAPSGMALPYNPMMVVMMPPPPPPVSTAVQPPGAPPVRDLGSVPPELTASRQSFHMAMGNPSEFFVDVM", "assay": "co-IP; kidney tissue lysates (RIPA buffer) of T1D (STZ) mice and controls; immunoprecipitated with IgG (negative control), anti-CFTR or anti-Dvl2 antibodies on Dynabeads Protein G; blotted with anti-CFTR and anti-Dvl2"}, "[2]": {"target": "Cystic fibrosis transmembrane conductance regulator (CFTR) (mouse (endogenous in kidney tissue)) (UniProt P26361)", "assay": "co-IP; kidney tissue lysates (RIPA buffer) of T1D (STZ) mice and controls; immunoprecipitated with IgG (negative control), anti-CFTR or anti-Dvl2 antibodies on Dynabeads Protein G; blotted with anti-CFTR and anti-Dvl2"}}, "note": "These are yes or no findings as the source states them, for the method shown. Binding seen in cells or lysates may run through a third protein. Some binding calls cover weakened binding; strength is not graded here.", "data": [{"molecule": "Cystic fibrosis transmembrane conductance regulator (CFTR) (from UniProt P26361 1-1476)", "values": [{"measurement": "binding", "setting": "[1]", "value": "binds"}]}, {"molecule": "Dvl2 (protein, UniProt Q60838 1-736) MAGSSAGGGGVGETKVIYHLDEEETPYLVKIPVPAERITLGDFKSVLQRPAGAKYFFKSMDQDFGVVKEEISDDNARLPCFNGRVVSWLVSSDTPQPEVAPPAHESRTELVPPPPPLPPLPPERTSGIGDSRPPSFHPNVSSSHENLEPETETESVVSLRRDRPRRRDSSEHGAGGHRPGGPSRLERHLAGYESSSTLMTSELESTSLGDSDEDDTMSRFSSSTEQSSASRLLKRHRRRRKQRPPRMERTSSFSSVTDSTMSLNIITVTLNMEKYNFLGISIVGQSNERGDGGIYIGSIMKGGAVAADGRIEPGDMLLQVNDMNFENMSNDDAVRVLRDIVHKPGPIVLTVAKCWDPSPQAYFTLPRNEPIQPIDPAAWVSHSAALTGAFPAYPGSSSMSTITSGSSLPDGCEGRGLSVHMDMASVTKAMAAPESGLEVRDRMWLKITIPNAFLGSDVVDWLYHHVEGFPERREARKYASGLLKAGLIRHTVNKITFSEQCYYVFGDLSGGCESYLVNLSLNDNDGSSGASDQDTLAPLPGATPWPLLPTFSYQYPAPHPYSPQPPPYHELSSYTYGGGSASSQHSEGSRSSGSTRSDGGAGRTGRPEERAPESKSGSGSESELSSRGGSLRRGGEPGGTGDGGPPPSRGSTGAPPNLRALPGLHPYGAPSGMALPYNPMMVVMMPPPPPPVSTAVQPPGAPPVRDLGSVPPELTASRQSFHMAMGNPSEFFVDVM", "values": [{"measurement": "binding", "setting": "[2]", "value": "binds"}]}]}
